From doi:10.1101/2020.05.24.113795
No constants are given. Whether binding was seen depends on the method and setting. Binding seen in cells or lysates may run through a third protein. Some results given as binding are weak or reduced against the parent protein; the word gives no strength.

Sequences of proteins named here, by UniProt entry; tags and fusion partners are left off. A change or cut given only in a name is not applied to a line headed by its entry.
UniProt Q63HN8: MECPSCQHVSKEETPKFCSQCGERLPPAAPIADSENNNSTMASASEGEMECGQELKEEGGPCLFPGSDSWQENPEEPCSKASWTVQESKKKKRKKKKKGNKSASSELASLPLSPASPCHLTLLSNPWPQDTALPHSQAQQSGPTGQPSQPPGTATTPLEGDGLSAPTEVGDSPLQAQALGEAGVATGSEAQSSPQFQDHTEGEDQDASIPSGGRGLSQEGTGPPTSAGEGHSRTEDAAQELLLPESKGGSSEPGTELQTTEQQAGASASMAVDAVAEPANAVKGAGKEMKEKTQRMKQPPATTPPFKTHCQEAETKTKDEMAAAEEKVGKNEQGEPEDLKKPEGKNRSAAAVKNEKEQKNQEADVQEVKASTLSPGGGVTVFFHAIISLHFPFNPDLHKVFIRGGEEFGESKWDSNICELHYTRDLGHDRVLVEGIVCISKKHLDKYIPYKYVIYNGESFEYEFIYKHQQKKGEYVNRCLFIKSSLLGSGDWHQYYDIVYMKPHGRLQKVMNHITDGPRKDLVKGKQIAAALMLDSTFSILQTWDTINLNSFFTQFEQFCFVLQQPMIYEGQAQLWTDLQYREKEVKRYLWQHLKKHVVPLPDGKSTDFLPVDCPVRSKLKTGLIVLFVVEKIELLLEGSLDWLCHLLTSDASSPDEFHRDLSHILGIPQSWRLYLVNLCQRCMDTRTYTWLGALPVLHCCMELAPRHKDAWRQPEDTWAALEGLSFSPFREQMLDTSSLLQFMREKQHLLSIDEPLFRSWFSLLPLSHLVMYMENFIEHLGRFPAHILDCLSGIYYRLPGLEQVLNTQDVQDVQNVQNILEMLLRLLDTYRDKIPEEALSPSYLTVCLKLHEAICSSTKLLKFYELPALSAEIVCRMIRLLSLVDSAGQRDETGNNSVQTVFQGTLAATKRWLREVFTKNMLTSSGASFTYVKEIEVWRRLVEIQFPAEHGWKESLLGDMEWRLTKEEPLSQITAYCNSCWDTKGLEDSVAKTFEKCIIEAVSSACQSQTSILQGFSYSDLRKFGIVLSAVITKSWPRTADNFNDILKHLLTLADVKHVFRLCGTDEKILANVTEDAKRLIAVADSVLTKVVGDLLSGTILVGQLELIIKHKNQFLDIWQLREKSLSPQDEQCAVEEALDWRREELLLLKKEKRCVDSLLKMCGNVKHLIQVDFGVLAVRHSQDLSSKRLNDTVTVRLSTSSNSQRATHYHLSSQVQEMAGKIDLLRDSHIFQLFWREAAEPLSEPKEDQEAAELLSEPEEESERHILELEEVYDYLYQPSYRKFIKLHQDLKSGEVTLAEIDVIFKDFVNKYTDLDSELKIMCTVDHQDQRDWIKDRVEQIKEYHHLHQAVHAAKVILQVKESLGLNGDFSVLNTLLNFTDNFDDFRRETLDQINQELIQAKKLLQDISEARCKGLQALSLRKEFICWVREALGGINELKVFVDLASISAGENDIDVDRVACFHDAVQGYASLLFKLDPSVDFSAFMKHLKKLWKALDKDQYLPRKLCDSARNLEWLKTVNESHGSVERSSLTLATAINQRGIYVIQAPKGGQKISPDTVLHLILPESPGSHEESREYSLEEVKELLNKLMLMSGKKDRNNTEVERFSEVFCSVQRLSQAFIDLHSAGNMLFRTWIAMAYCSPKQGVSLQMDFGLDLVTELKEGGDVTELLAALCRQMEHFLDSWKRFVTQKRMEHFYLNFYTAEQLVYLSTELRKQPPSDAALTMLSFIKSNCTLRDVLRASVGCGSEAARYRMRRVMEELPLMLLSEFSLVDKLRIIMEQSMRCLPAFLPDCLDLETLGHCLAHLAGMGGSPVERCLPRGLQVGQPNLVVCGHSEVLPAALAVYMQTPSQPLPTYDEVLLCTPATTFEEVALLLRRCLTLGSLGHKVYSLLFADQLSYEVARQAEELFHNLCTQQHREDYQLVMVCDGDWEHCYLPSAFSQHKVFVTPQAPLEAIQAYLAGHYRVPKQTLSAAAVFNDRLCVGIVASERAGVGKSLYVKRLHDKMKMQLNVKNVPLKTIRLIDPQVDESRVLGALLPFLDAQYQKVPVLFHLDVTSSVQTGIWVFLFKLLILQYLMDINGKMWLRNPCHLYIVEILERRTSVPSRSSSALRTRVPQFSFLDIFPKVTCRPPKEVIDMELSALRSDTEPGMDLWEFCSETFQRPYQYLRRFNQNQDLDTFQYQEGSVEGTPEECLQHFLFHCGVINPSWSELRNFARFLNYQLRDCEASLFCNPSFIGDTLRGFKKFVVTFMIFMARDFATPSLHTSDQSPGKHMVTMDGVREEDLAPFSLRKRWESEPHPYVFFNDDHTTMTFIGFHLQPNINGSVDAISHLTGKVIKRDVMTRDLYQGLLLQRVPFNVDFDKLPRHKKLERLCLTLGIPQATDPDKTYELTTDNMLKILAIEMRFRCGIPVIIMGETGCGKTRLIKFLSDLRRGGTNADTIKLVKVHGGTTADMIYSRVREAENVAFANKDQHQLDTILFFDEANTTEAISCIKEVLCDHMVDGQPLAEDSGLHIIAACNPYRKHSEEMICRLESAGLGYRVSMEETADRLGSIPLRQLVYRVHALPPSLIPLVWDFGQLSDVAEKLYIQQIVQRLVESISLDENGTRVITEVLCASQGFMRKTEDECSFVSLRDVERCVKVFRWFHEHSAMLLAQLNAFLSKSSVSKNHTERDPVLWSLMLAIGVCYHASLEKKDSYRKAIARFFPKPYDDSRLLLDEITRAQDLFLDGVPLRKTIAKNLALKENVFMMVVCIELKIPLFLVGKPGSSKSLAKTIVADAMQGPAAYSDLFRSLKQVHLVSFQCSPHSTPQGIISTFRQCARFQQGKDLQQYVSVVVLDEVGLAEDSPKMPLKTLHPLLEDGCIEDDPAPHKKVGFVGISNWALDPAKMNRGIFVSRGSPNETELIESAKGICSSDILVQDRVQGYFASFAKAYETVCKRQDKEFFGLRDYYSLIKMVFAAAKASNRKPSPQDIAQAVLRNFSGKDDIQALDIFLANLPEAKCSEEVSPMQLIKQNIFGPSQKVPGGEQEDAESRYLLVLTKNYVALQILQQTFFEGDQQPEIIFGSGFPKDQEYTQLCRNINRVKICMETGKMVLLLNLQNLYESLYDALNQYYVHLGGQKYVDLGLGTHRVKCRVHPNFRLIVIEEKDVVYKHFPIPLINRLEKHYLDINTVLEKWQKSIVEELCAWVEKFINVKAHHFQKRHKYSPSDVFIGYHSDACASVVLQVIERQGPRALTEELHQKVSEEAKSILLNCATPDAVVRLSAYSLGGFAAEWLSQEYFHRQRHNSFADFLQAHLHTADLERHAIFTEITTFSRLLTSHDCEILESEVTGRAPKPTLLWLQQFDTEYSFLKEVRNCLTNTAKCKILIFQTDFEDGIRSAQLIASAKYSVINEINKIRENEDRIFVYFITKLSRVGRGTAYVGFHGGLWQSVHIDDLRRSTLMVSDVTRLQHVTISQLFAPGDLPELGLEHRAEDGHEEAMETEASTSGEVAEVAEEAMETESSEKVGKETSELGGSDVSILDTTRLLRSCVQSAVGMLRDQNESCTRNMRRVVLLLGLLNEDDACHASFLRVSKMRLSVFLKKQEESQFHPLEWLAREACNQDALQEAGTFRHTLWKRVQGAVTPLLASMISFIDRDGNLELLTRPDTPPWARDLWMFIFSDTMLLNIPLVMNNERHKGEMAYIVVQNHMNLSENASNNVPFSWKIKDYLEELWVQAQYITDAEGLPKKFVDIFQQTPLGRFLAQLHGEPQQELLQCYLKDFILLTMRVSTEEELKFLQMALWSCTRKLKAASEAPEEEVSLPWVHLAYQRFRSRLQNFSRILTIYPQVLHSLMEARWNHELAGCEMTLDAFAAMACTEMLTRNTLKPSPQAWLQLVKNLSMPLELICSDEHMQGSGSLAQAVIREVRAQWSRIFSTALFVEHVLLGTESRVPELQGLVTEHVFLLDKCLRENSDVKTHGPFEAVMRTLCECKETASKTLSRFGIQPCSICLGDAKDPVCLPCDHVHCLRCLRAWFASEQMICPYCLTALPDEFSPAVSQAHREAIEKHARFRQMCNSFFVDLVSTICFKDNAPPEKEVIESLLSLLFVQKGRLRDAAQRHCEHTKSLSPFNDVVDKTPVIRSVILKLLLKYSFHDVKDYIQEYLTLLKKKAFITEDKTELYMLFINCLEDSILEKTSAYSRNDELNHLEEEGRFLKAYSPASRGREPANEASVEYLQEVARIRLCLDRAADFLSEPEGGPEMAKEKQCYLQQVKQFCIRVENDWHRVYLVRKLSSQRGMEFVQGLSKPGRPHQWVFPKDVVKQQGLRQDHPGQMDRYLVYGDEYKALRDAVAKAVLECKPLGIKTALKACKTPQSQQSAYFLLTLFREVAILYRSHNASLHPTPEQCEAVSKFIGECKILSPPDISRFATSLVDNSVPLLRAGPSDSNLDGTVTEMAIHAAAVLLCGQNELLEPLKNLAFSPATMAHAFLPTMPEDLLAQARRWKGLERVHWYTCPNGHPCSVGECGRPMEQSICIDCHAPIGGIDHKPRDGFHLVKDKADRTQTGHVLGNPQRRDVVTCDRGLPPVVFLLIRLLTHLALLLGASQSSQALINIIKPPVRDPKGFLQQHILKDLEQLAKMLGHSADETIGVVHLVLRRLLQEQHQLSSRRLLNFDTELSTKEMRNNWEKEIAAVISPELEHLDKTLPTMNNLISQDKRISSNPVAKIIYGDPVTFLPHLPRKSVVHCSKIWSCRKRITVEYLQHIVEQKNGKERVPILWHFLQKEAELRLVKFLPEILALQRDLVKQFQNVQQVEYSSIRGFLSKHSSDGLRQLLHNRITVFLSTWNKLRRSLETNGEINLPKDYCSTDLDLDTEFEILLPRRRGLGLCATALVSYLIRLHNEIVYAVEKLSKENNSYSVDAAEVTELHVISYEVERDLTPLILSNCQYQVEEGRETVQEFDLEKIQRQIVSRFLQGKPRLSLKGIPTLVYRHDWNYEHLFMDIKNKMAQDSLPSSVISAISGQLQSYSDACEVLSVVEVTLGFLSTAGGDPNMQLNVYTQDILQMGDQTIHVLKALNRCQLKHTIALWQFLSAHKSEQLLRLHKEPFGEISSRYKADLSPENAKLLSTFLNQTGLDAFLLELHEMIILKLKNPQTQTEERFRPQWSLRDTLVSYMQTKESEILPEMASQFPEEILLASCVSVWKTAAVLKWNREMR

Tests used:
Experiment in all cases: co-IP
[1] = target: 3x-Flag-tagged RNF213 I3999A (RING E3-defective mutant) (human) (UniProt Q63HN8)
[2] = target: 3x-Flag-tagged RNF213 E2488Q (AAA+ ATPase-inactive mutant) (human) (UniProt Q63HN8)
[3] = target: 3x-Flag-tagged RNF213 R4810K (most prevalent MMD variant) (human) (UniProt Q63HN8)

Measured: binding

EGFP-tagged WT RNF213 (from UniProt Q63HN8 1-5207)
binds: all assays above
